Literature values in patent publication US6750244B2, “Compounds active at a novel site on receptor-operated calcium channels useful for treatment of neurological disorders and diseases” (NPS Pharmaceuticals, Inc., priority 1993, dated 2004).
Structures were worked out from names or drawings and are uncertain.

Chains of the proteins cited; added tags and fusions are not shown. Lines headed by an entry give the natural chain unless they say otherwise; changes in a name come on top. Residues count along the entry.
UniProt P19492, 23-888 isoform 2 limits assumed: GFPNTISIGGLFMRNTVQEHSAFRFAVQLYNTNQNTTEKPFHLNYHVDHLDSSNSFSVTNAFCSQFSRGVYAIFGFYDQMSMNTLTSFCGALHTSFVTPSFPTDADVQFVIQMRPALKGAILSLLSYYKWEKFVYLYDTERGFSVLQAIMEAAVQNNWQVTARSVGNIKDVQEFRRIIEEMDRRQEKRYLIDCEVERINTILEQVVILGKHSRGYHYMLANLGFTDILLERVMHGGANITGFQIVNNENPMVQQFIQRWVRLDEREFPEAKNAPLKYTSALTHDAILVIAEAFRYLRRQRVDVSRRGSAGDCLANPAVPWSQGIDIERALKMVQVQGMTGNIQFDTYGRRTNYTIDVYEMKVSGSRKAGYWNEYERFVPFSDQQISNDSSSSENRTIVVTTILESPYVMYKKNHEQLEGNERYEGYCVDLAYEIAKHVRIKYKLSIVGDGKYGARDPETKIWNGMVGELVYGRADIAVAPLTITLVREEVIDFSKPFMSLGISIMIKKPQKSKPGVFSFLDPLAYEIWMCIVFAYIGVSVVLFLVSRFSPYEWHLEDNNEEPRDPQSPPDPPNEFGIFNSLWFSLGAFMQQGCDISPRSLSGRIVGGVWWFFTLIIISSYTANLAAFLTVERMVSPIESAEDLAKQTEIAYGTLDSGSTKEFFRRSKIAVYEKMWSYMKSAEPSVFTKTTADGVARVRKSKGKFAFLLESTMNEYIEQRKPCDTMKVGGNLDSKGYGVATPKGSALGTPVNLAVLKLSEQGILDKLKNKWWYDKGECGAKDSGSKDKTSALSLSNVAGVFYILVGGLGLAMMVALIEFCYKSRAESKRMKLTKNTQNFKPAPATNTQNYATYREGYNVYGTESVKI
UniProt P19491, 22-883 Q607R limits assumed: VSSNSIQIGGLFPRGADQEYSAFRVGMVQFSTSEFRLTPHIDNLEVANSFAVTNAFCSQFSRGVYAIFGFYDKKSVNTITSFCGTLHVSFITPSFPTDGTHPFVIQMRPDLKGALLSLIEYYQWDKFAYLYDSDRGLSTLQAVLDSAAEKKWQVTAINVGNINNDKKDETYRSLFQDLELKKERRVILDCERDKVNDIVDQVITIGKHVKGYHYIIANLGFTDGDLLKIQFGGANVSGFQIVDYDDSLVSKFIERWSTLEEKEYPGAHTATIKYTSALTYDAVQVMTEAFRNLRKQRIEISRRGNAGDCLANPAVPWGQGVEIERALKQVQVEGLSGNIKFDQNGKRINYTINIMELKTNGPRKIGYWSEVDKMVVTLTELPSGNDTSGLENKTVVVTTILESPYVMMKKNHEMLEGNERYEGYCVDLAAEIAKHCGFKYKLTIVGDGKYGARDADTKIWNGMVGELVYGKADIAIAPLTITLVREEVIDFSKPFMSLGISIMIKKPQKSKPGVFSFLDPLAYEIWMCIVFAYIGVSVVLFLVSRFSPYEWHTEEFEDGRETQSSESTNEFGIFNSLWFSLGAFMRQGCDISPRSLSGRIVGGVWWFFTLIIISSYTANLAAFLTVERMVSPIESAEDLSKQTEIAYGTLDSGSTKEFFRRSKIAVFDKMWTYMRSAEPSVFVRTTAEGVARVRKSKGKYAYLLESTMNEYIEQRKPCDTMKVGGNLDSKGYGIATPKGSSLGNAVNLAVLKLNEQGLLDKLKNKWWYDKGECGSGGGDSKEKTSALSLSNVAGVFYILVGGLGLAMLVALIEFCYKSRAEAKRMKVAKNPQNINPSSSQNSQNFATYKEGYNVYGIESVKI
UniProt P19490, 19-907 limits assumed: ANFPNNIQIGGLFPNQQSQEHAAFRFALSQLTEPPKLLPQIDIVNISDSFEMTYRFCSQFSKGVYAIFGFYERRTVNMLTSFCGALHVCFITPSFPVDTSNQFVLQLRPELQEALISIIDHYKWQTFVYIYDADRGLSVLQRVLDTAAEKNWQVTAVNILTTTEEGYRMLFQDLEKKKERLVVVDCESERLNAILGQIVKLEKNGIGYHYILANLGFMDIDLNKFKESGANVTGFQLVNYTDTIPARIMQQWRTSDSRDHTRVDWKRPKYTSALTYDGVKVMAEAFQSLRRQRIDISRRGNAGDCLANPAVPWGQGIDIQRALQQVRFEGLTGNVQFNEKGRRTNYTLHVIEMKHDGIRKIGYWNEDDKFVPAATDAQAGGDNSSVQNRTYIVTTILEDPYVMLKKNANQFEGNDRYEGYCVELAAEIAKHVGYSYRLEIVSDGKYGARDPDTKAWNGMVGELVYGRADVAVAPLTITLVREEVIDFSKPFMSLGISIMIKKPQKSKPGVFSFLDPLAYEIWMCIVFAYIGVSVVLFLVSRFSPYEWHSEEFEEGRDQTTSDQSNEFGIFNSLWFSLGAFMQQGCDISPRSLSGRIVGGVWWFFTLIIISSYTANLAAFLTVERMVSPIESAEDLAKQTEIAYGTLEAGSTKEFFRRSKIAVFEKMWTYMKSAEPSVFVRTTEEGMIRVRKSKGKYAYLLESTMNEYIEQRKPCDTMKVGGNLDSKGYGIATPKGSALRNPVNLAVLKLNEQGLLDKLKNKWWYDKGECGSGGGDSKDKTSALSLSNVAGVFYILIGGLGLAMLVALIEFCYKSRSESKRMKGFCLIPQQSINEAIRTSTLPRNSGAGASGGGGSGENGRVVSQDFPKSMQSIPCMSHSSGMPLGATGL
UniProt P19490, 19-907 isoform 2 limits assumed: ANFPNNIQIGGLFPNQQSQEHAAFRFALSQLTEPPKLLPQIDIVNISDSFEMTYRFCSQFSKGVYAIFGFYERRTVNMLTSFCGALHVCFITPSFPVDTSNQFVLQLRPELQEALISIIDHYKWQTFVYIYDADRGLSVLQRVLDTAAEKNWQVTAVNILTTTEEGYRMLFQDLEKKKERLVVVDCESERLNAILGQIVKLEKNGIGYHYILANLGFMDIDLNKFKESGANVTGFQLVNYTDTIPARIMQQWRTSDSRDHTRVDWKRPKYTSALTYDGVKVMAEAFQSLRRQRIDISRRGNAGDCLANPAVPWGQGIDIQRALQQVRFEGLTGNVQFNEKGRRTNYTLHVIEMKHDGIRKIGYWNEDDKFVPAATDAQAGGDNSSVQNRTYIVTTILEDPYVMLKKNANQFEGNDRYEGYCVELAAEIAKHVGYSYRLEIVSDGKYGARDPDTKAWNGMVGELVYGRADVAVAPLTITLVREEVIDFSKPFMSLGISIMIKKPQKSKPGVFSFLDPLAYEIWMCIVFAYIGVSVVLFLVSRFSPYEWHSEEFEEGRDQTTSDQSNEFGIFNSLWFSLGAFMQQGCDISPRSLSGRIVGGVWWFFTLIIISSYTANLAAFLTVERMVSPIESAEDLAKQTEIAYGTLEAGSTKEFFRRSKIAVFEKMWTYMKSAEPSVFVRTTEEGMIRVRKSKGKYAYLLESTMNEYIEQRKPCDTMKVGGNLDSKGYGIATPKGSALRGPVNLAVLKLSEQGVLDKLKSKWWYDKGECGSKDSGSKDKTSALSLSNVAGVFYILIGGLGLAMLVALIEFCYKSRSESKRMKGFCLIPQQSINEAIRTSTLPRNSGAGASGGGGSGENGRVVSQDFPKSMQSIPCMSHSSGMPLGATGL
UniProt A7XY94, 25-1448 limits assumed: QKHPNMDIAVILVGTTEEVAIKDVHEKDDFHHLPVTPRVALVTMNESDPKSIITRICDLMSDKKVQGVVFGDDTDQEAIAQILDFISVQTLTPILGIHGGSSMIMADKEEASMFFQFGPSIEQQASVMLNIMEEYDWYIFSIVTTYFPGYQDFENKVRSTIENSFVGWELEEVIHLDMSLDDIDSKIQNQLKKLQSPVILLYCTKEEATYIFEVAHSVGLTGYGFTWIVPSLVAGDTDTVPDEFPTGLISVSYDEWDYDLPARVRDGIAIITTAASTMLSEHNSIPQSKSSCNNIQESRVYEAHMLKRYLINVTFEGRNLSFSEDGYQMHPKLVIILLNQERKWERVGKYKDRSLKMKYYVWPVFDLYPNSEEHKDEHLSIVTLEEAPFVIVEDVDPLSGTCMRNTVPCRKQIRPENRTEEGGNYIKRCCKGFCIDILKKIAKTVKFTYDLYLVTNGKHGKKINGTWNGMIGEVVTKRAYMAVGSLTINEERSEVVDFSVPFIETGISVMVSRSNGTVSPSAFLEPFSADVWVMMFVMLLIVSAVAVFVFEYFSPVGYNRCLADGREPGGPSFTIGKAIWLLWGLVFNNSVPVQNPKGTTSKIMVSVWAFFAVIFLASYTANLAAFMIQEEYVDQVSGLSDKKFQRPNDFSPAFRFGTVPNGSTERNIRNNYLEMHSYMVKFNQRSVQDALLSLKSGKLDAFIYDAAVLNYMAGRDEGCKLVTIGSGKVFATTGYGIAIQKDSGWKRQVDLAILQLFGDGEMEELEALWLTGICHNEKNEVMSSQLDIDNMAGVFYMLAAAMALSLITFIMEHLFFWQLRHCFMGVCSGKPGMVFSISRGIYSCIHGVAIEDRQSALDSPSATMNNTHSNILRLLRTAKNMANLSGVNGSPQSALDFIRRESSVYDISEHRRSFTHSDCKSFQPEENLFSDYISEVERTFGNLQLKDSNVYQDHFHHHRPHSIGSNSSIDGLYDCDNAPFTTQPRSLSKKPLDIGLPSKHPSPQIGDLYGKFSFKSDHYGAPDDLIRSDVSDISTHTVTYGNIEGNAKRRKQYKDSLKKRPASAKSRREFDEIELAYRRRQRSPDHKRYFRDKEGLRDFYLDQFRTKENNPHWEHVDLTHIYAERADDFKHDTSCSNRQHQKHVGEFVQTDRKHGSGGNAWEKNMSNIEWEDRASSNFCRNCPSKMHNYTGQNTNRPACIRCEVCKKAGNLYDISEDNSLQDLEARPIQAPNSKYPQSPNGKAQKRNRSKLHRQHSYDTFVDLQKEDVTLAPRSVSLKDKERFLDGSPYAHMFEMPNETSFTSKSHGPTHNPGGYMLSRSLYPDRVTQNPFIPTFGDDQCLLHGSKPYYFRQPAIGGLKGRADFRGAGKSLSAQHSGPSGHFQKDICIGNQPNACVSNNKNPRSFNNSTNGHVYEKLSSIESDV
UniProt Q00959, 23-1464 limits assumed: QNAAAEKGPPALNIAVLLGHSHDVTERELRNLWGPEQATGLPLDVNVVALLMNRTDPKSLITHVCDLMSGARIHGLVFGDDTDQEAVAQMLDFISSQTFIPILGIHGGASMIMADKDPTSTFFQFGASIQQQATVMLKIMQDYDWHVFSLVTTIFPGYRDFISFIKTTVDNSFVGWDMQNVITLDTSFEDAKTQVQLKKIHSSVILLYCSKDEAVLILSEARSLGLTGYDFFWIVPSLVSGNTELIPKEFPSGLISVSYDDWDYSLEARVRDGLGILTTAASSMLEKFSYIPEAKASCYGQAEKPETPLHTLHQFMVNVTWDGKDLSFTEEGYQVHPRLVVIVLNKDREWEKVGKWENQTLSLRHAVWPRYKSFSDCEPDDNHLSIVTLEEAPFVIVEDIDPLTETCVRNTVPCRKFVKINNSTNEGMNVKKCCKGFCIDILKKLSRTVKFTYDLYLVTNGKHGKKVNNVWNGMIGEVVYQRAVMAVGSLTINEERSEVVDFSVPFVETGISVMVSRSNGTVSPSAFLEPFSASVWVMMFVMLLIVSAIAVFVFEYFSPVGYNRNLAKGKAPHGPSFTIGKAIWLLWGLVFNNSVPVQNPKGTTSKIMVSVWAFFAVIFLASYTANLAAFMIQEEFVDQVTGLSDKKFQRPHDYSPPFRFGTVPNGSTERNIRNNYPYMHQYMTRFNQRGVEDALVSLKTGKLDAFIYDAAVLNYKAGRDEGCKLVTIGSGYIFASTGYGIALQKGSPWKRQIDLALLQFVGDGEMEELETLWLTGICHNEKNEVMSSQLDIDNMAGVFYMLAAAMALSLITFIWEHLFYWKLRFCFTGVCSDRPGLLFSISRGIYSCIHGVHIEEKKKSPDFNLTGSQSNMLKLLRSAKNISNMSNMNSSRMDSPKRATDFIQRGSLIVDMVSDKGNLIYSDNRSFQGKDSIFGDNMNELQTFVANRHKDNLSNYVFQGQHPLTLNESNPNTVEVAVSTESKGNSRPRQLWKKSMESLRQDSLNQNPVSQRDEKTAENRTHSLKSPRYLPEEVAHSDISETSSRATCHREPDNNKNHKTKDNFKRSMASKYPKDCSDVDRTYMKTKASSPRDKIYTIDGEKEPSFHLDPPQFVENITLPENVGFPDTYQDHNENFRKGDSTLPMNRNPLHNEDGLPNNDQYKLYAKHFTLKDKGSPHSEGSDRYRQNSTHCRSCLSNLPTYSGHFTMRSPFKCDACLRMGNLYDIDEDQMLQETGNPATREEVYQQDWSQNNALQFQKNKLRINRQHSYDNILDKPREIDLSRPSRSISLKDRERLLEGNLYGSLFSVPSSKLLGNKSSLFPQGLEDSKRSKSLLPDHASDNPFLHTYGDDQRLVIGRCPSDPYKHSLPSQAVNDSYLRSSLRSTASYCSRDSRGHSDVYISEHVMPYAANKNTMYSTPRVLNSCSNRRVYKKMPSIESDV

What was measured:
GluRDi = GluRDi (Rattus norvegicus, UniProt P19493); conditions: cited from earlier work
kainate receptors = conditions: read-out: IC50, kainate-induced responses; cited from earlier work
GluRCi = GluRCi (Rattus norvegicus, UniProt P19492); conditions: cited from earlier work
[1] = tested on: muscle relaxation and anesthesia; conditions: intrathecal administration; cited from earlier work
rat forebrain membranes = conditions: cited from earlier work
NMDA-induced seizures = conditions: subcutaneously (s.c.); cited from earlier work
NMDA receptors = conditions: read-out: IC50, NMDA-induced responses; cited from earlier work
GluRBi = GluRBi (Rattus norvegicus, UniProt P19491, Q607R); conditions: concentrations up to 10 μM; cited from earlier work
GluRAi = GluRAi (Rattus norvegicus, UniProt P19490); conditions: cited from earlier work
GluR1+GluR2 = GluR1+GluR2 (Rattus norvegicus, UniProt P19490+P19491, Q607R); conditions: cited from earlier work
NMDAR1+NMDAR2B = NMDAR1+NMDAR2B (Rattus norvegicus, UniProt P35439+Q00960); conditions: cited from earlier work
NMDAR1 = NMDAR1 (UniProt A7XY94+P35439); conditions: cited from earlier work
NMDAR1+NMDAR2A = NMDAR1+NMDAR2A (Rattus norvegicus, UniProt P35439+Q00959); conditions: cited from earlier work
NMDAR1+NMDAR2C = NMDAR1+NMDAR2C (Rattus norvegicus, UniProt P35439+Q00961); conditions: cited from earlier work

For `N=C(N)NCCC[C@H](N)C(=O)NCCCNCCCNCCCCCNC(=O)[C@H](CC(N)=O)NC(=O)Cc1ccc(O)cc1O`, the Ki (GluRDi) is given as 430 nM, the IC50 (kainate receptors) is given as 70 nM and the Ki (GluRCi) is given as 230 nM. For the same molecule, the “muscle relaxation and anesthesia” value [1] was “produces muscle relaxation and anesthesia”, the Kd (rat forebrain membranes) was 11200 nM and the minimal effective dose (NMDA-induced seizures) was 32 mg/kg. The IC50 (NMDA receptors) was 40 nM, the antagonism (GluRBi) was “essentially ineffective” and the Ki (GluRAi) was 350 nM. For the same molecule, the IC50 (GluR1+GluR2) was 300000 nM, the IC50 (NMDAR1+NMDAR2B) was 2.5 nM and the IC50 (NMDAR1) was 90 nM. The IC50 (NMDAR1+NMDAR2A) was 9 nM and the IC50 (NMDAR1+NMDAR2C) was 460 nM.
